According to publication PMC6957511:
Results are given in words; binding and its absence hold for the method and conditions named. Binding seen in cells or lysates may run through a third protein. Where a sequence is shown, tags or fusion partners need not be part of it.

Amino acid sequences for entries named in this document (tags omitted). A change or cut given only in a name is not applied to a line headed by its entry.
UniProt Q8C0J2: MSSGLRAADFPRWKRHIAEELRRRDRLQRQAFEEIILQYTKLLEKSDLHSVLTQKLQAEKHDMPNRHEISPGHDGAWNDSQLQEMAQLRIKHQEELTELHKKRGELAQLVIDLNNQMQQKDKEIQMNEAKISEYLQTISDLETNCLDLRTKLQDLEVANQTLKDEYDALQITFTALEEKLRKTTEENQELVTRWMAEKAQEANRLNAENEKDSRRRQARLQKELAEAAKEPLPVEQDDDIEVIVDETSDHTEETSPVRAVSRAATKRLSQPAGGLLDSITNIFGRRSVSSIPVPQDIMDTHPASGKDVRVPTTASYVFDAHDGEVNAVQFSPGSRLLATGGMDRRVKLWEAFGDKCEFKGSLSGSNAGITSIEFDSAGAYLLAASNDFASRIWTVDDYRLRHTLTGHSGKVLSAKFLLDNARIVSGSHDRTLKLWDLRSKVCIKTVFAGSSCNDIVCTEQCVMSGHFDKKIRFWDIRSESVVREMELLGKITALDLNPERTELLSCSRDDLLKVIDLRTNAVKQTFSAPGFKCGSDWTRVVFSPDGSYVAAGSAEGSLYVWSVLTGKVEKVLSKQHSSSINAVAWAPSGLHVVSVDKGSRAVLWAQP

Biological target: GFP-Atg16L1 (mouse Atg16L1, full length) (mouse) (UniProt Q8C0J2)
Experiment: co-IP; lysates of 293T cells co-expressing the GFP-tagged and 3Myc-tagged proteins; GFP fusion captured with GST-GFP-nanobody on glutathione Sepharose 4B, 2 h at 4 °C; wash buffer TBS/5 mM MgCl2, 1 mM EDTA, 0.05% NP-40; immunoblot

B1: NDP52-3Myc (protein, UniProt Q13137 1-446)
chain: MEETIKDPPTSAVLLDHCHFSQVIFNSVEKFYIPGGDVTCHYTFTQHFIPRRKDWIGIFRVGWKTTREYYTFMWVTLPIDLNNKSAKQQEVQFKAYYLPKDDEYYQFCYVDEDGVVRGASIPFQFRPENEEDILVVTTQGEVEEIEQHNKELCKENQELKDSCISLQKQNSDMQAELQKKQEELETLQSINKKLELKVKEQKDYWETELLQLKEQNQKMSSENEKMGIRVDQLQAQLSTQEKEMEKLVQGDQDKTEQLEQLKKENDHLFLSLTEQRKDQKKLEQTVEQMKQNETTAMKKQQELMDENFDLSKRLSENEIICNALQRQKERLEGENDLLKRENSRLLSYMGLDFNSLPYQVPTSDEGGARQNPGLAYGNPYSGIQESSSPSPLSIKKCPICKADDICDHTLEQQQMQPLCFNCPICDKIFPATEKQIFEDHVFCHSL
binding: no binding
